The target of assay [1] is FLAG-tagged dTOR (Drosophila) (UniProt Q9VK45). Put plainly: co-IP; S2 cells transiently transfected with dTOR-FLAG; anti-FLAG immunoprecipitates, immunoblotting with anti-FKH or anti-FLAG.
The target of assay [2] is T1, HA-tagged Fork Head (FKH) (Drosophila) (UniProt P14734).
T1 sequence: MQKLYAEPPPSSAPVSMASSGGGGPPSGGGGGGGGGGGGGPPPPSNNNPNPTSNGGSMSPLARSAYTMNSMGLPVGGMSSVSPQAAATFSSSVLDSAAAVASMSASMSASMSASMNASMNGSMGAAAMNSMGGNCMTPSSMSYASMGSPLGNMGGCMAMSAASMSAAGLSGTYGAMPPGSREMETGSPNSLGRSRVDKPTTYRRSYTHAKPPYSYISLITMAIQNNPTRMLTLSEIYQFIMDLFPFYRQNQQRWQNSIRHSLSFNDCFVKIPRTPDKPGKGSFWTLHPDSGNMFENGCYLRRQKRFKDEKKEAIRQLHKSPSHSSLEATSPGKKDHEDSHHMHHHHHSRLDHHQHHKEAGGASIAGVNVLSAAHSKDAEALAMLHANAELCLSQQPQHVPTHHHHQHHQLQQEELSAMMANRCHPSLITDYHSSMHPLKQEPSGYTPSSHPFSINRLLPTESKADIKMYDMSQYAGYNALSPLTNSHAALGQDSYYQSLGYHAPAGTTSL
Put plainly: co-IP; S2 cells transiently transfected with FKH-HA and/or dAKT-FLAG, 15 min of insulin stimulation; anti-HA immunoprecipitates, immunoblotting with anti-HA or anti-FLAG.

Chains of the proteins cited; added tags and fusions are not shown.
UniProt Q9VK45: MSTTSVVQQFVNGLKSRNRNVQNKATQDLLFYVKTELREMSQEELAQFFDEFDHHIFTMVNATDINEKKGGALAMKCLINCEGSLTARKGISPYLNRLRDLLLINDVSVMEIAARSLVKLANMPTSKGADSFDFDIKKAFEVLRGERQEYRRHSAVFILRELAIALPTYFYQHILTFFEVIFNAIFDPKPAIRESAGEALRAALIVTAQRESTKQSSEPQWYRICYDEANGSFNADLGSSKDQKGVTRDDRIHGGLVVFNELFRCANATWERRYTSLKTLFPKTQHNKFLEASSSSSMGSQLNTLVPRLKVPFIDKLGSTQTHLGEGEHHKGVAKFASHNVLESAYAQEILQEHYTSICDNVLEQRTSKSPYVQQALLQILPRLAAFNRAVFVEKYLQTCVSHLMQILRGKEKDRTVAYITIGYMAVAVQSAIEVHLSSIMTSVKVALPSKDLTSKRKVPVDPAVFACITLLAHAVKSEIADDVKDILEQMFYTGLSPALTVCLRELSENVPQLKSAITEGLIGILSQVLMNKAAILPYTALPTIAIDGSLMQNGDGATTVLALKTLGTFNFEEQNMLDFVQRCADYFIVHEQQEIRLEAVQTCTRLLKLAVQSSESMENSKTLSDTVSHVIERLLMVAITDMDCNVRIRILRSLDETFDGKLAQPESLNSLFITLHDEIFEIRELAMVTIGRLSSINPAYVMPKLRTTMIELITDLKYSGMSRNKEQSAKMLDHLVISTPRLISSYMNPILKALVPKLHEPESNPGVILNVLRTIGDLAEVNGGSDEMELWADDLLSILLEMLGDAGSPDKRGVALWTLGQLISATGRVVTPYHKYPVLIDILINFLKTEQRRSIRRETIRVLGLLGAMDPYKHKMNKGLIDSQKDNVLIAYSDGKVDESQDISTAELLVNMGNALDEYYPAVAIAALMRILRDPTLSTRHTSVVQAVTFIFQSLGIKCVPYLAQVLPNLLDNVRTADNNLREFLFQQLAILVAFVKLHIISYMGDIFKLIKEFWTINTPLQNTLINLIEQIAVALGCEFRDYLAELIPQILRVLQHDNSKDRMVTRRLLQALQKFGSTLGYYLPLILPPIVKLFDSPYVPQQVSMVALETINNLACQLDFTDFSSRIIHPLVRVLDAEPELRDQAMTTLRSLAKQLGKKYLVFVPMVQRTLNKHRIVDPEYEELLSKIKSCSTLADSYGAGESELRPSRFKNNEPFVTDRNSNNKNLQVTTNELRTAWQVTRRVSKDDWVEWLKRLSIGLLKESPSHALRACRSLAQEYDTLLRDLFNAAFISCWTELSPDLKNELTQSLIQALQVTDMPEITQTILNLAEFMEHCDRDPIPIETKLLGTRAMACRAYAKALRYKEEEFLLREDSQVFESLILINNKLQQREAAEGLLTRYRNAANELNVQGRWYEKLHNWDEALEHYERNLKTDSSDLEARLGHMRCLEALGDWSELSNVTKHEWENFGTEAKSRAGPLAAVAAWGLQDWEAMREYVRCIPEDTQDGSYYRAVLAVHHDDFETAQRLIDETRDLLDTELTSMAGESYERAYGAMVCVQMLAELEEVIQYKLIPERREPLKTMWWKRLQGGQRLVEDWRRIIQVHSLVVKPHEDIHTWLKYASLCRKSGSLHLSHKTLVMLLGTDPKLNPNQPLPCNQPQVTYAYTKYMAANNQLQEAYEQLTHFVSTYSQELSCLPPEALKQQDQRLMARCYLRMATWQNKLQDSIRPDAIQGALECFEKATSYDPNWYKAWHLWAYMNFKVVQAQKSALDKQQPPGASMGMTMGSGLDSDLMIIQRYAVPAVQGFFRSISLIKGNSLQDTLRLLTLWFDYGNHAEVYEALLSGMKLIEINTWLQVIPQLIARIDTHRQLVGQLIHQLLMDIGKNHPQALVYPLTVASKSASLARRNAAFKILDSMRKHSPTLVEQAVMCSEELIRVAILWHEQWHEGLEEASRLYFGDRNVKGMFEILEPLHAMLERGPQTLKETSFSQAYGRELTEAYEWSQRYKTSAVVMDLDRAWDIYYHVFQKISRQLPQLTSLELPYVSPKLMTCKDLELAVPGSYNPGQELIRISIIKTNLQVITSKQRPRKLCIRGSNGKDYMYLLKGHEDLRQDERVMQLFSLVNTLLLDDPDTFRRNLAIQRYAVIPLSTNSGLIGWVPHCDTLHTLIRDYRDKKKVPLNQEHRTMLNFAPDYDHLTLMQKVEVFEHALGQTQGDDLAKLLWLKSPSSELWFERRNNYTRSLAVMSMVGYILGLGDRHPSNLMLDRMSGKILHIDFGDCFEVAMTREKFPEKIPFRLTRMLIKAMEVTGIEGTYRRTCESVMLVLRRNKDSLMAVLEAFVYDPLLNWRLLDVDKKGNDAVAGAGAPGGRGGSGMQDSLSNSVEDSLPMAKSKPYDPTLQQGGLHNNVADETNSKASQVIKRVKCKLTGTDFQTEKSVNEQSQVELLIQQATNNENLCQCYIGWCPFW

No constants are given. Whether binding was seen depends on the method and setting. In cells and extracts the contact can be indirect. Some binding calls cover weakened binding; strength is not graded here. For some assays here: Tags and fused reporters may be left off the sequences shown.

B1: endogenous FKH protein (protein, UniProt P14734 1-510)
chain: MQKLYAEPPPSSAPVSMASSGGGGPPSGGGGGGGGGGGGGPPPPSNNNPNPTSNGGSMSPLARSAYTMNSMGLPVGGMSSVSPQAAATFSSSVLDSAAAVASMSASMSASMSASMNASMNGSMGAAAMNSMGGNCMTPSSMSYASMGSPLGNMGGCMAMSAASMSAAGLSGTYGAMPPGSREMETGSPNSLGRSRVDKPTTYRRSYTHAKPPYSYISLITMAIQNNPTRMLTLSEIYQFIMDLFPFYRQNQQRWQNSIRHSLSFNDCFVKIPRTPDKPGKGSFWTLHPDSGNMFENGCYLRRQKRFKDEKKEAIRQLHKSPSHSSLEATSPGKKDHEDSHHMHHHHHSRLDHHQHHKEAGGASIAGVNVLSAAHSKDAEALAMLHANAELCLSQQPQHVPTHHHHQHHQLQQEELSAMMANRCHPSLITDYHSSMHPLKQEPSGYTPSSHPFSINRLLPTESKADIKMYDMSQYAGYNALSPLTNSHAALGQDSYYQSLGYHAPAGTTSL
In the case of B1, the binding result in assay [1] is recorded as “binds”.

B2: FLAG-tagged dAKT (enzyme, UniProt Q8INB9 1-611)
chain: MNYLPFVLQRRSTVVASAPAPGSASRIPESPTTTGSNIINIIYSQSTHPNSSPTSGSAEKFSWQQSWPSRTSAAPTHDSGTMSINTTFDLSSPSVTSGHALTEQTQVVKEGWLMKRGEHIKNWRQRYFVLHSDGRLMGYRSKPADSASTPSDFLLNNFTVRGCQIMTVDRPKPFTFIIRGLQWTTVIERTFAVESELERQQWTEAIRNVSSRLIDVGEVAMTPSEQTDMTDVDMATIAEDELSEQFSVQGTTCNSSGVKKVTLENFEFLKVLGKGTFGKVILCREKATAKLYAIKILKKEVIIQKDEVAHTLTESRVLKSTNHPFLISLKYSFQTNDRLCFVMQYVNGGELFWHLSHERIFTEDRTRFYGAEIISALGYLHSQGIIYRDLKLENLLLDKDGHIKVADFGLCKEDITYGRTTKTFCGTPEYLAPEVLDDNDYGQAVDWWGTGVVMYEMICGRLPFYNRDHDVLFTLILVEEVKFPRNITDEAKNLLAGLLAKDPKKRLGGGKDDVKEIQAHPFFASINWTDLVLKKIPPPFKPQVTSDTDTRYFDKEFTGESVELTPPDPTGPLGSIAEEPLFPQFSYQGDMASTLGTSSHISTSTSLASMQ
As to B2, the binding entry in assay [2] was “binds”.

The values above are taken from article PMC5656751.
